Results reported in patent US4954637A, “Certain maleimide-N-alkylenecarboxylate-ortho-nitrobenzenesulfonic acid esters and derivatives useful for coupling biological materials” (Cetus Corporation, priority 1987, dated 1990).

Test system: avidin
Settings: in 30 minutes; 27 amino groups per avidin

SMILES: O=C(CCCCCN1C(=O)C=CC1=O)Oc1ccc(S(=O)(=O)O)cc1[N+](=O)[O-] [mal-sac-HNSA, N-maleimido-6-aminocaproylHNSA]
- amino groups of avidin reacted with the ester: 13.5 amino groups
